# Laboratory results as given in PubChem BioAssay (Tox21).
# Chains of the proteins cited; added tags and fusions are not shown. Lines headed by an entry give the natural chain unless they say otherwise; changes in a name come on top.
# UniProt P28223, whole entry, looked up: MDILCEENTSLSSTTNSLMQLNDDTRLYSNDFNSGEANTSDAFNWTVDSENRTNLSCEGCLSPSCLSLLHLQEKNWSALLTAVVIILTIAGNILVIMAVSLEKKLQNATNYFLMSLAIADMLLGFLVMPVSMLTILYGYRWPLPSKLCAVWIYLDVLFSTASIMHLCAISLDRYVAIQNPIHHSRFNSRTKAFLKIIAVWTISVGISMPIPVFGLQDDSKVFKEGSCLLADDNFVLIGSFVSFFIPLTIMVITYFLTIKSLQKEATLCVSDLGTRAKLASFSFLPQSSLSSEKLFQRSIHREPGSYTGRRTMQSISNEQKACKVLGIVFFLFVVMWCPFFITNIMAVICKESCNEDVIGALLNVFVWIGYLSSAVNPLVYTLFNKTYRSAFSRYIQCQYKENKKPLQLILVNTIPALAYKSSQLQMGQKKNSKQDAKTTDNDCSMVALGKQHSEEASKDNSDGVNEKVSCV
# UniProt P11229: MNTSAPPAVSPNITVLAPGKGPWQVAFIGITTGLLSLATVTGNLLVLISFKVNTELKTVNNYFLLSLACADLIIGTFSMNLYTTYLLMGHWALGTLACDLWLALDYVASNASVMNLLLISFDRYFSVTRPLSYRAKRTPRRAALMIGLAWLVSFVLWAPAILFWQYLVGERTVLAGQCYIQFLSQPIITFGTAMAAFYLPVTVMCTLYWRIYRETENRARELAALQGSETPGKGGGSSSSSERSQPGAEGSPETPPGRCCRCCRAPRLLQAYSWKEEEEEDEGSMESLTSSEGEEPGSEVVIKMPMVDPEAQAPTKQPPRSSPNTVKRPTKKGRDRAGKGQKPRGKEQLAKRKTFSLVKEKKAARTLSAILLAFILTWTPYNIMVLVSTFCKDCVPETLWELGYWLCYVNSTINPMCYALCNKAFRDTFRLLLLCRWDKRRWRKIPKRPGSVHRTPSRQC
# UniProt P14416, whole entry, looked up: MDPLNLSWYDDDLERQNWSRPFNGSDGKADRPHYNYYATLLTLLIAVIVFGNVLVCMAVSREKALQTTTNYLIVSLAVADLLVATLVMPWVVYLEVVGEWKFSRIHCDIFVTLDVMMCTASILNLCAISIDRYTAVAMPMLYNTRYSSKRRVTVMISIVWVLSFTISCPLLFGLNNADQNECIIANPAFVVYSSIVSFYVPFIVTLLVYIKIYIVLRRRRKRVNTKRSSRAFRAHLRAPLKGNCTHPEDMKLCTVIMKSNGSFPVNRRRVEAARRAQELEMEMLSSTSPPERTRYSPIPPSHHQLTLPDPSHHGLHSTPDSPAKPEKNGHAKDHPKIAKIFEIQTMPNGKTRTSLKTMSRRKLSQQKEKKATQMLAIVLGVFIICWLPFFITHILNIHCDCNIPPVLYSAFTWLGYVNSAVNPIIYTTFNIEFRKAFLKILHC
# Where “and” joins values, the source holds several entries; their conditions need not be identical. Identical values can stand only once. The shares of active, inactive and inconclusive entries below differ from those in the screen. For part of these data: Potencies of inconclusive entries are doubtful fits and often do not repeat. Calls of active or inactive are those of the source. Unless noted, calls follow the shape of the full dose curve.
# Tests used:
# [1] = target: 5-hydroxytryptamine receptor 2A (Homo sapiens) (UniProt P28223); assay: 5-hydroxytryptamine receptor 2A (HTR2A) small molecule antagonists, cell-based qHTS assay (AID 1963586); also: nearly all actives have a fitted effect of over 45% in size; also: potency is read from the fitted curve at half-maximal effect
# Method in brief: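 Antagonist-mode intracellular calcium assay: DOI (4 nM) added after 5 min compound pre-incubation at room temperature to dye-loaded HTR2A-CHO cells. Fluorescence followed for 3 min, sampled every second.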
# [2] = cAMP Responsive Elements (CRE) small molecule agonists, cell-based qHTS assay (AID 1963590); conditions: CRE-bla HEK293T, beta-lactamase FRET ratio, 3 h; activation: at 92.4 µM (top of the series) unless noted; also: % is scaled to controls: 0 for no effect and ±100 for the full control effect
# Method in brief: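 CRE-bla HEK 293T cells in DMEM with 10% dialyzed FBS, NEAA, pyruvate and 25 mM HEPES were plated 18 h at 37 C/5% CO2, then exposed to compounds in DMSO for 3 h before LiveBLAzer B/G FRET substrate addition.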
# [3] = target: Beta-2 adrenergic receptor (Homo sapiens) (UniProt P07550); assay: Adrenergic beta2 receptor (ADRB2) small molecule agonists, cell-based qHTS assay (AID 1963593); conditions: CHO-ADRB2 cells, cAMP HTRF, 30 min; also: potency is read from the fitted curve at half-maximal effect;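 as to activation: CHO cells stably overexpressing human ADRB2; % is scaled to controls: 0 for no effect and ±100 for the full control effect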
# Method in brief: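 CHO cells stably over-expressing ADRB2 were plated overnight at 37C, then dosed with compounds plus a stimulation mix containing 100uM IBMX and 25uM Ro-20-1724 for 0.5hr at room temperature. cAMP was measured by HTRF competition, 1hr.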
# [4] = target: Muscarinic acetylcholine receptor M1 (Homo sapiens) (UniProt P11229); assay: Cholinergic receptor muscarinic 1 (CHRM1) small molecule antagonists, cell-based qHTS assay (AID 1963588); also: potency is read from the fitted curve at half-maximal effect; nearly all actives have a fitted effect of over 40% in size
# Method in brief: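 CHRM1-CHO calcium-flux assay, antagonist mode. Cells were seeded 18 h, dye-loaded 1 h at 37 C and given compound for 5 min at RT, then acetylcholine was added at 50nM. FDSS fluorescence was read 3 min; 15 concentrations, three runs.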
# [5] = target: Beta-2 adrenergic receptor (Homo sapiens) (UniProt P07550); assay: Adrenergic beta2 receptor (ADRB2) small molecule antagonists, cell-based qHTS assay (AID 1963592); conditions: CHO-ADRB2 cells, isoproterenol-stimulated cAMP HTRF ratio, 0.5 h; activity change, negative = inhibition: at 92.4 µM (top of the series) unless noted; also: nearly all actives have a fitted effect of over 50% in size; also: potency is read from the fitted curve at half-maximal effect; as to activity change, negative = inhibition: % is scaled to controls: 0 for no effect and ±100 for the full control effect
# Method in brief: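 Cells (CHO, stable ADRB2 overexpression) incubated 18-20hr at 37C; compounds added from DMSO; agonist mix (1nM isoproterenol, 100uM IBMX, 25uM Ro-20-1724) added; 0.5hr RT; d2-cAMP and anti-cAMP-cryptate added; 1hr RT; 665/615 nm read.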
# [6] = target: 5-hydroxytryptamine receptor 2A (Homo sapiens) (UniProt P28223); assay: 5-hydroxytryptamine receptor 2A (HTR2A) small molecule agonists, cell-based qHTS assay (AID 1963587); conditions: HTR2A-CHO cells, calcium flux fluorescence, agonist mode; activation: at 76.8 µM (top of the series); also: nearly all actives have a fitted effect of over 30% in size; also: potency is read from the fitted curve at half-maximal effect
# Method in brief: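 Kinetic calcium-flux fluorescence (2 min, 1 sec intervals) after compound addition in agonist mode. HTR2A-CHO cells were cultured 18 h, then dye-loaded 1 h at 37 C.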
# [7] = target: D(2) dopamine receptor (Homo sapiens) (UniProt P14416); assay: Dopamine D2 receptor (DRD2) small molecule agonists, cell-based qHTS assay (AID 1963594); conditions: HEK293-DRD2 cAMP HTRF, agonist mode, 30 min; activation: at 92.4 µM (top of the series) unless noted; also: nearly all actives have a fitted effect of over 35% in size; also: potency is read from the fitted curve at half-maximal effect
# Method in brief: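 cAMP accumulation in DRD2-HEK293 cells measured by HTRF after 1 h detection; compounds added 10 min before NKH477 (200nM […]) forskolin-analogue stimulation, 30 min at room temperature, with Ro20-1724 present at 0.1 mM final.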
# [8] = target: D(2) dopamine receptor (Homo sapiens) (UniProt P14416); assay: Dopamine D2 receptor (DRD2) small molecule antagonists, cell-based qHTS assay (AID 1963595; active = well fitted inhibition curve with a large enough effect in the signal ratio in the repeat runs, with a control signal flat; inconclusive = weak or mixed curves, or effect the other way; the % refers to the signal ratio; also: potency is read from the fitted curve at half-maximal effect); conditions: HEK293-DRD2 cAMP HTRF antagonist mode; activity change, negative = inhibition: at 92.4 µM (top of the series) unless noted
# Method in brief: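 Readout: HTRF cAMP, cAMP-d2 competing with cellular cAMP for anti-cAMP cryptate, read after 1 h. Cells: DRD2-HEK293. Conditions: 0.1 mM Ro20-1724, 12 nM quinpirole, 200 nM NKH477, 30 min RT.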
# [9] = cAMP Responsive Elements (CRE) small molecule antagonists, cell-based qHTS assay (AID 1963591; active = well fitted inhibition curve with a large enough effect in the signal ratio in the repeat runs, not every such curve was filed as active; inconclusive = weak or mixed curves, or effect the other way; the % refers to the signal ratio; also: % is scaled to controls: 0 for no effect and ±100 for the full control effect); conditions: CRE-bla HEK293T, beta-lactamase FRET ratio; activity change, negative = inhibition: at 92.4 µM (top of the series) unless noted
# Method in brief: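 CRE-bla HEK293T cells were plated 18 h at 37 °C/5% CO2, pinned with compound in DMSO, then stimulated with NKH477 at 0.25 uM final for 3 h. LiveBLAzer B/G FRET substrate was added and plates incubated 2 h at room temperature.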
# [10] = activation: at 92.4 µM (top of the series) unless noted
smiles,measurement,setting,value
CCC(Cl)[N+](=O)[O-] (centres undefined),Potency,[1],inactive
same,Potency,[2],inactive
same,activation,[3]; [10],inconclusive: -16.9%
O=C1OC(CCN2CCCCC2)OC1(c1ccccc1)c1ccccc1 (centres undefined),Potency,[1],inconclusive: 7.29 µM [inhibitor]
same,Potency,[4],active: 2.31 µM
same,"activity change, negative = inhibition",[5],inconclusive: -1.89% [at 42.5 µM]
CC1NCCOC1c1ccccc1 (centres undefined),Potency,[1],"inconclusive: 18.3 µM [inhibitor, partial curve, poor fit]"
same,Potency,[6],"inconclusive: 1.9 µM [activator, full curve, poor fit]"
same,Potency,[7],active: 14.1 µM
O=C(CCCN1CCC(n2c(=O)[nH]c3ccccc32)CC1)c1ccc(F)cc1,Potency,[1],active: 1.83 µM
same,Potency,[6],"inconclusive: 23.9 µM [activator, partial curve]"
same,Potency,[4],active: 2.05 µM
same,Potency,[2],inactive
same,Potency,[5],"inconclusive: 7.5 µM [inhibitor, full curve, poor fit]"
same,Potency,[3]; [10],"inconclusive: 11.9 µM [inhibitor, partial curve]"
same,Potency,[8],active: 0.0422 µM
Nc1cccc2ccccc12,Potency,[1],"inconclusive: 6 nM [inhibitor, full curve] and inconclusive: 42.1 µM [inhibitor, partial curve, poor fit]"
same,Potency,[6],"inactive and inconclusive: 54.9 µM [activator, partial curve, poor fit]"
same,activation,[3]; [10],inconclusive: -59.2% and inconclusive: -70.3%
CC(CC(C#N)(c1ccccc1)c1ccccc1)N(C)C (centres undefined),Potency,[1],"inconclusive: 41.9 µM [inhibitor, single point]"
same,Potency,[6],inactive
same,Potency,[9],inactive
same,activation,[3]; [10],inconclusive: -16.1%
COC(=O)c1ccccc1N,Potency,[1],"inconclusive: 23.7 µM [inhibitor, full curve, poor fit]"
same,activation,[3]; [10],inconclusive: 13.6%
same,activation,[3]; at 92.4 µM (top of the series),inactive: 21.5%
COc1cc(CC#N)cc(OC)c1OC,Potency,[1],"inconclusive: 0.183 µM [inhibitor, single point]"
same,activation,[3]; [10],inconclusive: 6.92% [at 42.5 µM]
CC[N+]1(CC)CCC(OC(=O)C(O)(c2ccccc2)c2ccccc2)C1 (centres undefined),Potency,[1],inactive
same,Potency,[7],inactive
CCCCc1c(C)nc(NCC)[nH]c1=O,Potency,[6],inactive
CCN(CC)CCN1C(=O)CN=C(c2ccccc2F)c2cc(Cl)ccc21,Potency,[1],inactive
same,Potency,[3]; [10],inconclusive: 3.35 µM [inhibitor]
CCN(CC)C(=O)Cl,Potency,[1],"inconclusive: 0.0024 µM [inhibitor, full curve, poor fit]"
same,Potency,[9],inactive
Cc1nc(N)nc(N)n1,Potency,[1],"inconclusive: 0.0109 µM [inhibitor, full curve, poor fit]"
same,activation,[3]; [10],inconclusive: -6.01%
same,"activity change, negative = inhibition",[8],inconclusive: 21.3%
CCOc1cc(Oc2ccc(C(F)(F)F)cc2Cl)ccc1[N+](=O)[O-],Potency,[1],"inconclusive: 0.849 µM [inhibitor, partial curve, poor fit]"
same,"activity change, negative = inhibition",[9],inconclusive: 26.3%
same,Potency,[3]; [10],"inconclusive: 21.9 µM [inhibitor, partial curve, poor fit]"
same,activation,[3]; [10],inconclusive: 24.2%
Nc1ccc([N+](=O)[O-])cc1[N+](=O)[O-],Potency,[1],"inconclusive: 0.366 µM [inhibitor, single point]"
same,Potency,[7],"inconclusive: 55.5 µM [falling, partial curve, poor fit]"
CC(=O)[C@H]1CC[C@H]2[C@@H]3CC[C@H]4C[C@](C)(O)CC[C@]4(C)[C@H]3CC[C@]12C,Potency,[1],inactive
same,activation,[3]; [10],inconclusive: -2.07% [at 42.5 µM]
CN(C)CCN(C)C,Potency,[1],"inconclusive: 0.149 µM [inhibitor, single point]"
same,Potency,[3]; [10],inactive
ClC(Br)Br,Potency,[1],"inconclusive: 0.825 µM [inhibitor, single point]"
same,Potency,[3]; [10],inactive
CCCOC(=O)c1cncn1C(C)c1ccccc1 (centres undefined),Potency,[1],inactive
same,Potency,[3]; [10],inactive
same,Potency,[8],inactive
c1ccc(P(c2ccccc2)c2ccccc2)cc1,Potency,[1],"inconclusive: 0.0054 µM [inhibitor, full curve]"
same,"activity change, negative = inhibition",[5],inconclusive: -30.6%
same,Potency,[3]; [10],"inactive and inconclusive: 2.73 µM [inhibitor, full curve, poor fit]"
O=c1oc2ccccc2c(O)c1C1CCCc2ccccc21 (centres undefined),Potency,[1],"inconclusive: 47.2 µM [inhibitor, single point]"
same,activation,[3]; [10],inconclusive: -46%
CC(=O)OC1(c2ccccc2)CCN(CCc2ccccc2)CC1,Potency,[1],active: 9.65 µM
same,activation,[3]; [10],inconclusive: 11.9%
O=C(O)COc1ccccc1,Potency,[1],"inconclusive: 9.72 µM [inhibitor, single point]"
same,"activity change, negative = inhibition",[9],inconclusive: 10.5%
same,Potency,[3]; [10],"inconclusive: 25.1 µM [inhibitor, partial curve]"
same,activation,[3]; at 42.5 µM (top of the series),inconclusive: -4.8%
same,activation,[3]; at 92.4 µM (top of the series),inconclusive: -15.3%
CC#Cc1cc(C)nc(Nc2ccccc2)n1,Potency,[1],"inconclusive: 5.29 µM [inhibitor, partial curve, poor fit]"
same,Potency,[5],inconclusive: 27.3 µM [inhibitor]
same,Potency,[3]; [10],"inconclusive: 54.4 µM [inhibitor, partial curve]"
same,Potency,[7],inconclusive: 61.1 µM
